Measurements reported in PubChem BioAssay AID493014 (National Center for Advancing Translational Sciences (NCATS), 2011).
The list shows a part of the results. Further columns of the screen follow, without active or inactive calls. Compounds called inactive in the main read-out are mostly missing here. Potencies come from curve fits of mixed quality, noted in brackets.

Experiment: qHTS Assay to Find Inhibitors of Chronic Active B-Cell Receptor Signaling
Conditions: ABC-DLBCL IkBa-CBG/CBR reporter, luminescence ratio (green luciferase fused to IkBa over red control in TMD8 lymphoma cells), 4 h
Procedure, shortened: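 TMD8 ABC-DLBCL cells carrying doxycycline-inducible green luciferase fused to IkappaBalpha plus unfused red luciferase were exposed to compounds (up to 46 uM) for 4 hrs at 37C. Activity came from the overlap-corrected green/red luminescence ratio.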

[1] = measured here: CBR red luminescence, cell number
[2] = measured here: IkBa-CBG green luminescence

SMILES	AC50 [1]	AC50 [2]
CCOc1ccc(N=C(/C(C(=O)C(=O)N2CCOCC2)=C(\O)c2ccccc2)c2ccccc2)cc1	14.6 µM [falling, partial curve, poor fit]	
CC(C)(CNC(=O)c1ccc(-c2ccccc2Cl)o1)N1CCOCC1	4.61 µM [rising, partial curve, poor fit]	
Cc1ccc(C(=O)NCC(=O)OCC(=O)c2c(N)n(C)c(=O)n(C)c2=O)s1	17.8 µM [rising, single point]	
O=Nc1c2nc3ccccc3n(O)c-2c2ccccc12	1.12 µM [falling, partial curve, poor fit]	
CCOCCCNc1nc(-c2ccccc2)nc2ccccc12	3.16 µM [falling, partial curve, poor fit]	
Clc1ccc(-n2cnnn2)cc1	20.6 µM [falling, partial curve, poor fit]	
NC(=O)N/N=C(/CCCCCC/C(=N\NC(N)=O)c1ccccc1)c1ccccc1	10 µM [falling, partial curve, poor fit]	
O=C(CCC1CCCN(Cc2cccc(Cl)c2)C1)NCc1ccccc1F (stereo not drawn)	3.55 µM [rising, partial curve, poor fit]	
Cn1nccc1C(=O)NC(=S)Nc1cc(Cl)cc(Cl)c1	3.16 µM [rising, partial curve, poor fit]	
CCCn1c(=C(C#N)C#N)s/c(=C2\C=Cc3ccccc3N2CC)c1=O	35.5 µM [falling, single point]	
Cc1ccc(-c2cc(C(=O)Nc3nccs3)c3ccccc3n2)o1	10.3 µM [falling, partial curve, poor fit]	
COc1ccc(F)cc1S(=O)(=O)NCC(c1ccco1)S(=O)(=O)c1ccc(F)cc1 (stereo not drawn)	1.78 µM [falling, partial curve, poor fit]	
COc1ccc2c(c1)c(=O)cc(C)n2CC(=O)NCc1ccco1	32.6 µM [falling, single point]	
Cc1cccc(COCC(Cc2ccccc2)N2CCN(C(=O)c3ccc(C(F)(F)F)cc3)CCC2=O)c1 (stereo not drawn)	18.4 µM [falling, single point]	
Cc1ccc(C(=O)Cc2nnc(C)s2)cc1	18.4 µM [falling, single point]	
Fc1cc(F)c(C2SCCN2C(=S)Nc2cccc(C(F)(F)F)c2)c(F)c1 (stereo not drawn)	0.178 µM [falling, full curve, poor fit]	
Cc1ccsc1C(=O)N/N=C/C=C/c1ccccc1[N+](=O)[O-]	10.3 µM [falling, partial curve]	
COc1ccc(C(=O)CN2CCN(S(=O)(=O)c3ccc(C(C)C)cc3)CC2)cc1	11.2 µM [falling, partial curve, poor fit]	
COC(=O)c1ccc2c(=O)n(Cc3ccc(C(=O)NCCCN4CCC(C)CC4)cc3)c(=S)[nH]c2c1	8.91 µM [falling, partial curve]	
CC(=O)N(Cc1cc(=O)[nH]c2ccccc12)c1ccc(C)cc1C	3.55 µM [rising, partial curve]	
CCn1c(NCCc2ccc(OC)c(OC)c2)nc2c1c(=O)n(C)c(=O)n2C	2.31 µM [falling, partial curve, poor fit]	

SMILES	AC50 [1]	AC50 [2]
CC(C)(C)[C@H]1COC(=O)[C@H](NC(=O)OCC2c3ccccc3-c3ccccc32)C/C=C\C[C@@H](CC(=O)N(CCO)Cc2ccccc2)C(=O)N1	16.4 µM [falling, partial curve]	
COc1cc(/C=C(/C#N)C(=O)Nc2ccc(C)cc2)ccc1Oc1nc(Cl)ncc1F	1.46 µM [falling, full curve, poor fit]	
CC(C)[C@@H]1CC[C@@H](C)c2c(-c3ccccc3)n[nH]c21	35.5 µM [rising, single point]	
COc1ccccc1C(=O)Nc1ccc(S(=O)(=O)N2CCCC2)cc1	14.6 µM [rising, single point]	
Cc1cccc(Cn2c(=O)n(-c3ccc(CC(=O)NCc4ccco4)cc3)c(=O)c3sccc32)c1		1.12 µM [falling, partial curve, poor fit]
O=C(COc1ncnc2sccc12)N1CCN(C(=O)c2ccco2)CC1	0.0891 µM [rising, full curve, poor fit]	
CCOc1cc(N2CCOCC2)c(OCC)cc1NC(=O)CN1C(=O)NC2(CCCCC2)C1=O	13 µM [rising, partial curve, poor fit]	16.4 µM [falling, single point]
Cc1cc(N)n(-c2cc(C)c3ccccc3n2)n1	10 µM [falling, partial curve, poor fit]	
Cn1c2ccccc2c2c(C(=O)N3CCN(c4ccccc4)CC3)cn(C3CCCC3)c(=O)c21	10.3 µM [falling, partial curve, poor fit]	
CC(C)(C)n1cnc2cc(NC(=O)c3ccco3)ccc21	12.6 µM [falling, single point]	
CC(C)c1nccn1S(=O)(=O)c1cc(Cl)ccc1Cl	32.6 µM [falling, single point]	
COc1ccc(Nc2nnc(SCC(=O)Nc3cc(C)on3)s2)cc1	10.3 µM [rising, single point]	
CCCc1ccc(-c2csc(NC(=O)C3=COCCO3)n2)cc1	0.92 µM [rising, full curve, poor fit]	
COc1cccc(NC(=O)CCc2ccccc2)c1	11.6 µM [falling, partial curve, poor fit]	
O=C(Nc1ccc2oc(=O)ccc2c1)c1ccco1	17.8 µM [falling, single point]	
COc1ccc(C)cc1NC(=O)CN(Cc1nnc(-c2ccc(Cl)cc2)o1)C1CCCC1	4.11 µM [rising, single point]	
COc1ccc(Cl)cc1S(=O)(=O)NC(C)C(=O)NCc1ccccn1 (stereo not drawn)	0.708 µM [rising, full curve, poor fit]	
O=C(CSc1ncccn1)NC(=O)Nc1ccc2c(c1)OCCO2	20 µM [falling, single point]	
Cc1ccc(C(=O)NCCN2C3=NC[C@H](C)N3C[C@H]2Cc2ccc(O)cc2)cc1Br	35.5 µM [falling, single point]	
C#CCOCCOCCOCCNc1nc(N2CCN(C(=O)CCCCCCCCCCNC(=O)[C@H](CCCCN)n3cc(C[C@@H](C)CC)nn3)CC2)nc(N2CCN(C(=O)CCCCCCCCCCNC(=O)[C@@H]([C@H](C)O)n3cc(C)nn3)CC2)n1	29.1 µM [rising, single point]	
Oc1ccc2ccccc2c1C=Nc1ccc(N2CCOCC2)cc1	0.651 µM [falling, full curve, poor fit]	

SMILES	AC50 [1]	AC50 [2]
COc1cc(/C=N/NC(=O)[C@H](Cc2c[nH]c3ccccc23)NC(=O)OCC(C)C)cc([N+](=O)[O-])c1O	23.1 µM [rising, single point]	18.4 µM [falling, single point]
Cc1cc(C)cc(N(CC(=O)N2CC=C(c3ccccc3)CC2)S(=O)(=O)c2c(C)noc2C)c1	9.2 µM [falling, partial curve]	
CN(C(=S)NC(=O)c1ccc(Cl)cc1)C1CCCCC1	25.1 µM [falling, single point]	
CN(C)c1ccc(/C=N\NC(=O)c2cccc3cc[nH]c23)cc1	28.2 µM [falling, partial curve, poor fit]	
O=C(COC(=O)c1ccc(O)cc1O)Nc1ccc2ccccc2c1	16.4 µM [falling, partial curve, poor fit]	
COc1cccc(N2CCN(C(=O)c3ccc4ccccc4c3)CC2)c1	20.6 µM [falling, single point]	
Cc1cccc(C(=O)OCC(=O)c2ccc3c(c2)OCCO3)c1O	1.16 µM [rising, single point]	
Cc1c(C(=O)O)c2cc(O)ccc2n1-c1ccccc1	1.46 µM [rising, partial curve, poor fit]	
Cc1nc2ccc(NC(=O)C3CCCCC3)cc2s1	14.6 µM [falling, single point]	
Cc1ccc(COc2cccc3c2CCN(Cc2ccc(F)cc2)C3=O)cc1	23.1 µM [falling, single point]	
CCC(=O)Nc1ccc(Nc2nc(C)c([N+](=O)[O-])c(Nc3ccc(NC(=O)CC)cc3)n2)cc1	18.4 µM [falling, single point]	
COc1ccc(-c2onc(C)c2-c2cscn2)c(O)c1	20 µM [rising, single point]	
O=C(COc1ccc(Cl)cc1[N+](=O)[O-])NC1CCCCC1	0.501 µM [rising, full curve, poor fit]	
c1ccc2c(-c3cn4ccccc4n3)c[nH]c2c1	15.8 µM [falling, single point]	
CCCc1[nH]nc2c1C(c1ccsc1)C(C#N)=C(N)O2 (stereo not drawn)		28.2 µM [falling, single point]
CCN(CC(=O)Nc1ccc(NC(C)=O)cc1)C(=O)c1cccc(S(=O)(=O)N2CCCC2)c1	3.26 µM [falling, full curve]	
COc1ccccc1C(=O)NCC(=O)N1CC=C(c2ccccc2)CC1	29.1 µM [falling, single point]	
COC(=O)C1=NN(C(=O)c2ccc(Cl)cc2)C(O)(c2ccccc2)C1 (stereo not drawn)	14.1 µM [falling, partial curve, poor fit]	
COc1cccc(Oc2ccc(C(F)(F)F)cc2N)c1	18.4 µM [rising, single point]	

Pulled one by one from the list above, four records:
SMILES	AC50 [1]	AC50 [2]
Cc1cccc(C(=O)OCC(=O)c2ccc3c(c2)OCCO3)c1O	1.16 µM [rising, single point]	
CCCc1[nH]nc2c1C(c1ccsc1)C(C#N)=C(N)O2 (stereo not drawn)		28.2 µM [falling, single point]
CCN(CC(=O)Nc1ccc(NC(C)=O)cc1)C(=O)c1cccc(S(=O)(=O)N2CCCC2)c1	3.26 µM [falling, full curve]	
CCC(=O)Nc1ccc(Nc2nc(C)c([N+](=O)[O-])c(Nc3ccc(NC(=O)CC)cc3)n2)cc1	18.4 µM [falling, single point]	
